Results are given in words; binding and its absence hold for the method and conditions named. Binding seen in cells or lysates may run through a third protein. Some results given as binding are weak or reduced against the parent protein; the word gives no strength.

Experimental findings from paper PMC11457642 are described below.

The target of this experiment is T1, Receptor-interacting serine/threonine-protein kinase 1 (mouse (endogenous in J774A.1)) (UniProt Q60855).
T1 sequence: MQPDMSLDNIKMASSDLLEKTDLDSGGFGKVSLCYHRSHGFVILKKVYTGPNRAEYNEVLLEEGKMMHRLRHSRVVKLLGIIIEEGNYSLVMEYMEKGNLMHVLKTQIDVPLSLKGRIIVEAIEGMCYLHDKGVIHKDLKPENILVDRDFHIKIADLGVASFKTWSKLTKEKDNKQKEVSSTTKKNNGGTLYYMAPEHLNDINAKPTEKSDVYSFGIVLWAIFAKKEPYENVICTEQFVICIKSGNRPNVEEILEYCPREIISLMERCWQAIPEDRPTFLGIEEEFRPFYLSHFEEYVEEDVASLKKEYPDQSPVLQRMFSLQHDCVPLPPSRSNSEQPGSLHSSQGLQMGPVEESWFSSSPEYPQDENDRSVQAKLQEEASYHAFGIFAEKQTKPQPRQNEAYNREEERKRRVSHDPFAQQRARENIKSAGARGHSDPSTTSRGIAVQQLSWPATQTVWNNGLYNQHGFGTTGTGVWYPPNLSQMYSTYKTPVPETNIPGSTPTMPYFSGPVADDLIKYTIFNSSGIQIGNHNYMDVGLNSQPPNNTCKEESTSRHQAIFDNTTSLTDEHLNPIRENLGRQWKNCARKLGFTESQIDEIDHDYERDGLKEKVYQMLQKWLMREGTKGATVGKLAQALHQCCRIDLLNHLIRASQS
Description: co-IP; anti-RIP1 (1 ug) with protein A/G magnetic beads, overnight at 4°C, from lysates of J774A.1 cells infected with H. pylori WT, ΔPldA or ΔPldA-in (MOI 100, 3 hr); IP lysis buffer 50 mM Tris-HCl pH 7.4, 150 mM NaCl, 0.5% NP40; detection by immunoblotting.

B1: Fas Associated Via Death Domain (protein, UniProt Q61160 1-205)
chain: MDPFLVLLHSLSGSLSGNDLMELKFLCRERVSKRKLERVQSGLDLFTVLLEQNDLERGHTGLLRELLASLRRHDLLQRLDDFEAGTATAAPPGEADLQVAFDIVCDNVGRDWKRLARELKVSEAKMDGIEEKYPRSLSERVRESLKVWKNAEKKNASVAGLVKALRTCRLNLVADLVEEAQESVSKSENMSPVLRDSTVSSSETP
Consider B1, for which the binding entry is given as “binds”.
